According to the supplement of paper PMC10849652:
This is one part of the list.

By UniProt entry, the sequences of proteins in these tests, tags left out. Where a name states a change or a piece, a line headed by the entry shows the natural chain unless it says otherwise.
UniProt P60602: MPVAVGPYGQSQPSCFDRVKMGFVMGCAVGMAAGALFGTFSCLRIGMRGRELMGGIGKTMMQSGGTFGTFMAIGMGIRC
UniProt Q96AT9: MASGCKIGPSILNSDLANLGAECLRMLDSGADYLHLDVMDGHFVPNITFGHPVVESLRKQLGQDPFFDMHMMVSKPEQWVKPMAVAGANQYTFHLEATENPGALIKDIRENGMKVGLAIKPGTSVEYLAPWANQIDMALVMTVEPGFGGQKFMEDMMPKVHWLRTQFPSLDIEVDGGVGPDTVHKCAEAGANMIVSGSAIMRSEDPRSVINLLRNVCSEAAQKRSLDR
UniProt Q96P16: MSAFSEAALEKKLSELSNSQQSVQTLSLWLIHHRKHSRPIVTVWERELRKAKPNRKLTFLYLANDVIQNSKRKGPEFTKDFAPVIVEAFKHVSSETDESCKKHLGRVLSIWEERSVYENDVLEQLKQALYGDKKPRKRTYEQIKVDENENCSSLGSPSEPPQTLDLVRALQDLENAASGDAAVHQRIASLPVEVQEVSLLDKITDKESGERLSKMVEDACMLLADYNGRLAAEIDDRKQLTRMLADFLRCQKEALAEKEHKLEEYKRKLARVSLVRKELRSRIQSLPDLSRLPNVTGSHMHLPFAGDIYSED
UniProt P78345: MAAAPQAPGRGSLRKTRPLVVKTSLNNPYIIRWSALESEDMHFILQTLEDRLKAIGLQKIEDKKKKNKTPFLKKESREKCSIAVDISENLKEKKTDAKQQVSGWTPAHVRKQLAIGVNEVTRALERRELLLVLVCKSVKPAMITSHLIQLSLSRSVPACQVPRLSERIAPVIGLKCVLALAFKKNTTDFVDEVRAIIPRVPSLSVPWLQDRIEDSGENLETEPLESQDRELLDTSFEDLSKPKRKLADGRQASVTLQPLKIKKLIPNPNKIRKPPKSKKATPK
UniProt Q5M7Z0: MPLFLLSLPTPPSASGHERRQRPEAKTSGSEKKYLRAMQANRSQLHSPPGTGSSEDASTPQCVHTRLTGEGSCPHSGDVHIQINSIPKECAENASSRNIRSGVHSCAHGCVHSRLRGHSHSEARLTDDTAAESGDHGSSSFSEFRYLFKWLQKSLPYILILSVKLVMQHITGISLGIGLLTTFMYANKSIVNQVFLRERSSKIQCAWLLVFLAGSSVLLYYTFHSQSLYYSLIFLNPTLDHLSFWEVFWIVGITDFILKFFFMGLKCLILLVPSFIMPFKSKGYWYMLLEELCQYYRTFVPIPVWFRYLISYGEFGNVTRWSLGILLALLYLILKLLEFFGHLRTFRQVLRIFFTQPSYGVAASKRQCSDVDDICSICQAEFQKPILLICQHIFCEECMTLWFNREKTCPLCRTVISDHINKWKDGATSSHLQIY
UniProt Q96EP0: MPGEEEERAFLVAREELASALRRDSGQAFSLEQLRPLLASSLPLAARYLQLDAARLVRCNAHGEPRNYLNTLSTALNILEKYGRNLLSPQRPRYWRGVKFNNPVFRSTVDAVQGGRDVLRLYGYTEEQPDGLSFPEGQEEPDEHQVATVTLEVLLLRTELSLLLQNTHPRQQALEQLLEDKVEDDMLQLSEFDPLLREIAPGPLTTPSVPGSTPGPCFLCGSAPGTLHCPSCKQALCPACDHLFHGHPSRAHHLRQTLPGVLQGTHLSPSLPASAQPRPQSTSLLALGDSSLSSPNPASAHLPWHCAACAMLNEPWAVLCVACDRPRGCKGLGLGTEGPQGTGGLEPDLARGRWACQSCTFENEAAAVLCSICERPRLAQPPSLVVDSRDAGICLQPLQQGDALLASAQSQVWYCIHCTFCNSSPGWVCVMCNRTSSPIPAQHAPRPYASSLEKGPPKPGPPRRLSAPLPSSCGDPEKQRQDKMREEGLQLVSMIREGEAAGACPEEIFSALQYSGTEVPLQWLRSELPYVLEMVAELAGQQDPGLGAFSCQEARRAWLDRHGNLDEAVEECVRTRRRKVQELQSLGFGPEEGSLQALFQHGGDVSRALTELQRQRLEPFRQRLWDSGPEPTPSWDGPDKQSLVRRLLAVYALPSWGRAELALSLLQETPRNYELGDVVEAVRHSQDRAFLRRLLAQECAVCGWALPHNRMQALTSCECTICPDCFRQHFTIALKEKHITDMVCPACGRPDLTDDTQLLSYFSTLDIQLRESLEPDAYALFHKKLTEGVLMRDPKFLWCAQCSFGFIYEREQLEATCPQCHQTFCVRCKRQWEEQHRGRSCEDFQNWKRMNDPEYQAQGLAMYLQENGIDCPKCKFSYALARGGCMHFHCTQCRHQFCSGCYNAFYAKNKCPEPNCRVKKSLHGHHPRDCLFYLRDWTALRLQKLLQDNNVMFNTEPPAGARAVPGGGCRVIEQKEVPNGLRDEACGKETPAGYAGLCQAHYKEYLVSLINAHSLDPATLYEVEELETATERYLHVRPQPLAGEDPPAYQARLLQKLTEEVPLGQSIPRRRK
UniProt Q7LG56, whole entry, looked up: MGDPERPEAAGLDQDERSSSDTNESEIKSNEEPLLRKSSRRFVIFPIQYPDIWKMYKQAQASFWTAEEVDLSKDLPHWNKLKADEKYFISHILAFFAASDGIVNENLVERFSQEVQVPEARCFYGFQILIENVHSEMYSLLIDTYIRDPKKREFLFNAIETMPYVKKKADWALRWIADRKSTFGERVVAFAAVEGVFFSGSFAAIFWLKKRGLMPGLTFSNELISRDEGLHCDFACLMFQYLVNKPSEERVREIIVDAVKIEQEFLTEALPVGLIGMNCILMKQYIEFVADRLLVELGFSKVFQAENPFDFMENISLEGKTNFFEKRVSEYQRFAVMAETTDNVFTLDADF
UniProt P78317: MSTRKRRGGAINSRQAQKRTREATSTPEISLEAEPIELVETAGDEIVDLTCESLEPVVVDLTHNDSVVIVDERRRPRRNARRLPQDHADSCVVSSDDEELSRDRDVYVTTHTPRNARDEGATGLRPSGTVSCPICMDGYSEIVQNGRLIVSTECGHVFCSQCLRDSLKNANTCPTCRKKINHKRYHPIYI
UniProt O43148, whole entry, looked up: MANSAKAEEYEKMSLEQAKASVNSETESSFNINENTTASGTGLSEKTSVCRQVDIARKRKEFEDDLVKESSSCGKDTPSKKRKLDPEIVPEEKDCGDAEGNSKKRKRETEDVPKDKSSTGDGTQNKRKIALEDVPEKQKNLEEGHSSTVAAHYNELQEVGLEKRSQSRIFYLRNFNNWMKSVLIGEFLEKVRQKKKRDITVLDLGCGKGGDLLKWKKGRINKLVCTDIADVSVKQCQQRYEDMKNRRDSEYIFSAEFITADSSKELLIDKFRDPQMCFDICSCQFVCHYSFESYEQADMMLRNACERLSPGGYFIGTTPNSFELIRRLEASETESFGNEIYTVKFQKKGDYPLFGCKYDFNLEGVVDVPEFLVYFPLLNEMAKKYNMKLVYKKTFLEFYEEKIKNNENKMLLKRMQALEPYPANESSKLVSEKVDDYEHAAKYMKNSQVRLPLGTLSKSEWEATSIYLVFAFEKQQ
UniProt P56182: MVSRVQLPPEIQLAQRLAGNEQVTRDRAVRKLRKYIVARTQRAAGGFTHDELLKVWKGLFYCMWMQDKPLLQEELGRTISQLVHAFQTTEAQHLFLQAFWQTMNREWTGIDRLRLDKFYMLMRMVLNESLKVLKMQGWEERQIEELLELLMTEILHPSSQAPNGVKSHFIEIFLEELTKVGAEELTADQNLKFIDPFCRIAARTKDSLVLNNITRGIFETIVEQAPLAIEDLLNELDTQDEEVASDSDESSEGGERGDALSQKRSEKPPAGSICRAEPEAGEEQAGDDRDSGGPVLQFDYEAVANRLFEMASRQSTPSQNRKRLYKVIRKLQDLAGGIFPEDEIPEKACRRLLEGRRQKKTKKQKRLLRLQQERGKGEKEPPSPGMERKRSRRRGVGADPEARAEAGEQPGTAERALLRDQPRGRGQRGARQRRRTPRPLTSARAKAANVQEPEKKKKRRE
UniProt Q9GZN7, whole entry, looked up: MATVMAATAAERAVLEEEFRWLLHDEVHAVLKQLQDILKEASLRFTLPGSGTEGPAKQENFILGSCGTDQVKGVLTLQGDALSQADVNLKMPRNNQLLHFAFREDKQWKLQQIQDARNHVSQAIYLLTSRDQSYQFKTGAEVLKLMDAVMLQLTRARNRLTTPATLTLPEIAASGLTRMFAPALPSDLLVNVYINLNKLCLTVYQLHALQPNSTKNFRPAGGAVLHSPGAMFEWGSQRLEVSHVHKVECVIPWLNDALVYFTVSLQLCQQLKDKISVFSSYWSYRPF
UniProt Q96CM3: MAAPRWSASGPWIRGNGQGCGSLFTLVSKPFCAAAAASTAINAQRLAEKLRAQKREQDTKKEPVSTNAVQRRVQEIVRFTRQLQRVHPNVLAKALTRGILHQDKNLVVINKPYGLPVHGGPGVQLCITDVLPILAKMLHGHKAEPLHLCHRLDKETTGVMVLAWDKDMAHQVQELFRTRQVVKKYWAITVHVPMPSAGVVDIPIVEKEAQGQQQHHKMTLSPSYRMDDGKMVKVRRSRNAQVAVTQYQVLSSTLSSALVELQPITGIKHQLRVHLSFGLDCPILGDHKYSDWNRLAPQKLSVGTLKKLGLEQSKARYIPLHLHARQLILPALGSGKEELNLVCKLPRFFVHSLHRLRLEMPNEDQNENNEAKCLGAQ
UniProt Q9BUL9: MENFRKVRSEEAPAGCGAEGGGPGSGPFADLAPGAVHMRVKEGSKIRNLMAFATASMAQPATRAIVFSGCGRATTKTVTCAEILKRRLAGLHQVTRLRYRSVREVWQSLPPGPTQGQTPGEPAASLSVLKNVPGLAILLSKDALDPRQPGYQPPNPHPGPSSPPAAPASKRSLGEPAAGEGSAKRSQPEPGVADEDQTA
UniProt Q92901: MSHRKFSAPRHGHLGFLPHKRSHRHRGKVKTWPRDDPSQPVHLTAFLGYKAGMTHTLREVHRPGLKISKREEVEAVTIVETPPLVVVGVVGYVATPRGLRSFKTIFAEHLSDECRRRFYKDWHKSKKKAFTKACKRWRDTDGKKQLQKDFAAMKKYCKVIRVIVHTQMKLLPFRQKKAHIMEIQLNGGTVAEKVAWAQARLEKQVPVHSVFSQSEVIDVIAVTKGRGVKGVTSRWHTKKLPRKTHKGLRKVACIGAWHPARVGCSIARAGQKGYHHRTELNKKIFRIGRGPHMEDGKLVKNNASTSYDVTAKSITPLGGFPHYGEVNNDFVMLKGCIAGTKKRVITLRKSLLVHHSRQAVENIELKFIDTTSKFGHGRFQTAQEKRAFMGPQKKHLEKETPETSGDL
UniProt Q8IXW5, whole entry, looked up: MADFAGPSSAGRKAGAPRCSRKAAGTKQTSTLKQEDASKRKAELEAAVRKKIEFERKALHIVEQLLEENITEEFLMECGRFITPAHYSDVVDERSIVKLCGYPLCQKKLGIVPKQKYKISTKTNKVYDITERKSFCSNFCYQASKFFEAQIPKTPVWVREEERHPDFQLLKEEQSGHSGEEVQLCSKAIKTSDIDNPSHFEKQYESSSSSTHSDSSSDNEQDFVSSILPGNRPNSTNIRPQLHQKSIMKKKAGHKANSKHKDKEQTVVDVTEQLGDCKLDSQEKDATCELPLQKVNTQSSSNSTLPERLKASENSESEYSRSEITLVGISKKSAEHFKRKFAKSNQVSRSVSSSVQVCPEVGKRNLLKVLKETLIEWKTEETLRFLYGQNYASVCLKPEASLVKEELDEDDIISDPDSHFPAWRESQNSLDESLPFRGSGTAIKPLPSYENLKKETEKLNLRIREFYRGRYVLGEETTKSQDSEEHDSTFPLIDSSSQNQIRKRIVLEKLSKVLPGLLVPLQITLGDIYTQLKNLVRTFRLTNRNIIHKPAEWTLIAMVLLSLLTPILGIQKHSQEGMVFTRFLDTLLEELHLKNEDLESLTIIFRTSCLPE
UniProt O75582, whole entry, looked up: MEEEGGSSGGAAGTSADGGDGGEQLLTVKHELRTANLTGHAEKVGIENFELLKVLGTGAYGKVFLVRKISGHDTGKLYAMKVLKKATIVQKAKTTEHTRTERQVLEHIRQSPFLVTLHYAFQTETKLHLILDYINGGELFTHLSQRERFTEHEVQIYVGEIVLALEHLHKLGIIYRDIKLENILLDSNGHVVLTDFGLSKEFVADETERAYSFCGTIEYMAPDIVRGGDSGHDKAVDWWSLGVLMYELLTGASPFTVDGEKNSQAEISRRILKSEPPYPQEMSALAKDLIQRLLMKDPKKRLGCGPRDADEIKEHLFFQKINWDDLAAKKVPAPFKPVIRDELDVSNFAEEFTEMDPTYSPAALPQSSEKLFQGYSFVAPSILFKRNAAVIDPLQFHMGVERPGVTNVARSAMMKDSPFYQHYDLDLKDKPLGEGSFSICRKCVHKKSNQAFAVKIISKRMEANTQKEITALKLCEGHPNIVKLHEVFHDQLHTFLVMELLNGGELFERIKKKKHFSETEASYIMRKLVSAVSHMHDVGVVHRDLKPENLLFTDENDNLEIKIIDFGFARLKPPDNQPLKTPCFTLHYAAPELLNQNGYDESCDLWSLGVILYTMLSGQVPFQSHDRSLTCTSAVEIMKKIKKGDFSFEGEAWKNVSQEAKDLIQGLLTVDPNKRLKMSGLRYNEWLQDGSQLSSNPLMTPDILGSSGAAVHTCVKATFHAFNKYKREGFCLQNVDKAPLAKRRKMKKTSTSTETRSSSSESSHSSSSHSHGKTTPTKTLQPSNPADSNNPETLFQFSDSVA

How the values were obtained:
Test in all cases: log2 fold change, soluble protein after heating vs DMSO (PISA); higher = thermal stabilisation; K562 cells, 10 uM, 30 min; active = over 0.2 and 3.5 SD of the protein, either way, in both replicates (recomputed)
[1] = compound: COC1=CC=C(C=C1)CN2C=CC3=C2C=C(C=C3)C(=O)NO
Method in brief: (§1)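 Soluble protein was defined as the supernatant after 21,000xg for 90 min. It came from K562 cells at 2×10^6 cells/mL given 10 μM compound for 30 min, heated in aliquots for 3 min across 48°C-58°C, pooled, and extracted in PBS with 0.5% NP-40 at 4°C, and was quantified by TMTpro 16plex LC-MS/MS with equalised channel sums. Thermal stability against control samples, from duplicates, is reported as log2 fold change.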

filanesib = compound: CON(C)C(=O)N1N=C(c2cc(F)ccc2F)S[C@@]1(CCCN)c1ccccc1 [filanesib]
Method in brief: as §1

idasanutlin = compound: COc1cc(C(=O)O)ccc1NC(=O)[C@@H]1N[C@@H](CC(C)(C)C)[C@](C#N)(c2ccc(Cl)cc2F)[C@H]1c1cccc(Cl)c1F [idasanutlin]
Method in brief: as §1

alisertib = compound: COc1cc(Nc2ncc3c(n2)-c2ccc(Cl)cc2C(c2c(F)cccc2OC)=NC3)ccc1C(=O)O [alisertib]
Method in brief: as §1

gefitinib = compound: COc1cc2ncnc(Nc3ccc(F)c(Cl)c3)c2cc1OCCCN1CCOCC1 [gefitinib]
Method in brief: as §1

[2] = compound: COc1cccc2cc(-c3nc([C@H]4CC[C@H](C(=O)O)CC4)n4ncnc(N)c34)[nH]c12
Method in brief: as §1

pictilisib = compound: CS(=O)(=O)N1CCN(Cc2cc3nc(-c4cccc5[nH]ncc45)nc(N4CCOCC4)c3s2)CC1 [pictilisib]
Method in brief: as §1

[3] = compound: COc1cc2nc(-c3cc(F)ccc3O)nc(N[C@@H]3CNC[C@H]3C(C)(C)O)c2cc1OC
Method in brief: as §1

lapatinib = compound: CS(=O)(=O)CCNCc1ccc(-c2ccc3ncnc(Nc4ccc(OCc5cccc(F)c5)c(Cl)c4)c3c2)o1 [lapatinib]
Method in brief: as §1

zotarolimus = compound: CO[C@H]1C[C@@H]2CC[C@@H](C)[C@@](O)(O2)C(=O)C(=O)N2CCCC[C@H]2C(=O)O[C@H]([C@H](C)C[C@@H]2CC[C@H](n3cnnn3)[C@H](OC)C2)CC(=O)[C@H](C)/C=C(\C)[C@@H](O)[C@@H](OC)C(=O)[C@H](C)C[C@H](C)/C=C/C=C/C=C/1C [zotarolimus]
Method in brief: as §1

Measured: log2 fold change

RPS7, A0A2R8Y623
inactive: [1] 0.464 | filanesib 0.113 | idasanutlin 0.746 | alisertib 0.344 | gefitinib 0 | [2] -0.198

RPL7L1 (UniProt Q6DKI1)
inactive: [1] -0.321 | gefitinib 0.146 | pictilisib 0.002

RPUSD3 (UniProt Q6P087)
inactive: idasanutlin 0.043 | alisertib -0.066 | [3] -0.012 | gefitinib 0.041 | [2] -0.137 | lapatinib -0.025 | pictilisib -0.149

RPRD2 (UniProt Q5VT52)
inactive: [1] 0.115 | idasanutlin -0.045 | [3] 0.033 | lapatinib 0.116

ROMO1 (UniProt P60602)
inactive: filanesib -0.024 | zotarolimus -0.069 | idasanutlin 0.044 | alisertib 0.005 | [3] -0.024 | gefitinib 0.034 | [2] 0.033 | lapatinib -0.079 | pictilisib 0.035

RPE (UniProt Q96AT9)
inactive: [1] 0.19 | zotarolimus 0.042 | idasanutlin -0.028 | alisertib 0.072 | [3] -0.092 | gefitinib 0.032 | [2] 0.037 | lapatinib 0

RPRD1A (UniProt Q96P16)
inactive: filanesib 0.115 | idasanutlin -0.117 | pictilisib -0.001

RPP38 (UniProt P78345)
inactive: [1] -0.033 | filanesib 0.021 | zotarolimus 0.011 | idasanutlin 0.05 | alisertib -0.092 | [3] 0 | gefitinib 0.005 | [2] -0.014 | lapatinib 0.01 | pictilisib -0.017

RNF34 isoform 2 (UniProt Q969K3)
inactive: [1] -0.113 | zotarolimus 0.071 | idasanutlin 0.051 | alisertib -0.063 | [3] -0.023 | gefitinib -0.16 | [2] -0.101 | lapatinib -0.089 | pictilisib 0.009

RNFT1 (UniProt Q5M7Z0)
inactive: alisertib -0.342 | [3] -0.163 | gefitinib -0.127 | [2] -0.016 | lapatinib 0.062 | pictilisib 0.046

RPP30 (UniProt Q5VU11)
inactive: [1] 0.005 | gefitinib 0.079 | pictilisib 0.129

RNF31 (UniProt Q96EP0)
inactive: filanesib 0.044 | gefitinib 0.015 | pictilisib -0.025

RRM2B isoform 6 (UniProt Q7LG56)
inactive: [1] -0.138 | filanesib -0.016 | zotarolimus -0.048 | idasanutlin 0.023 | alisertib -0.032 | [3] -0.001 | gefitinib 0.02 | [2] 0.07 | lapatinib -0.013 | pictilisib 0.075

RNF4 (UniProt P78317)
inactive: filanesib -0.17 | idasanutlin 0.331 | alisertib 0.012 | [3] 0.233 | gefitinib -0.077 | [2] -0.043 | lapatinib 0.043

RNF40 (UniProt O75150)
inactive: filanesib -0.121 | zotarolimus 0.018 | alisertib 0.265 | [2] 0.287

RNMT isoform 2 (UniProt O43148)
inactive: [1] -0.053 | filanesib 0.087 | zotarolimus -0.021 | idasanutlin 0.046 | alisertib -0.04 | [3] 0.014 | gefitinib -0.026 | [2] 0 | lapatinib 0.008 | pictilisib -0.037

RRP1 (UniProt P56182)
inactive: [1] -0.182 | pictilisib -0.09

ROGDI (UniProt Q9GZN7)
inactive: zotarolimus 0.018 | pictilisib -0.046

RPS6KA3 (UniProt P51812)
inactive: [1] -0.013 | filanesib 0 | zotarolimus 0.033 | idasanutlin -0.008 | [3] -0.221 | gefitinib -0.033 | [2] 0.013 | lapatinib 0.011 | pictilisib -0.011

RPSA (UniProt F8WD59)
inactive: alisertib 2.31 | [2] -0.02

RPL13 (UniProt P26373)
inactive: [1] -0.156 | filanesib 0.781 | zotarolimus -0.055 | idasanutlin 0.347 | alisertib -0.149 | [3] -0.119 | gefitinib -0.079 | [2] -0.357 | lapatinib 0.319 | pictilisib -0.077

RPS6KB2 (UniProt Q9UBS0)
inactive: [1] -0.075 | zotarolimus -0.068 | alisertib 0.076 | [2] -0.004

RPS3A (UniProt D6R9B6)
inactive: filanesib 0.228 | idasanutlin 0.079

RPUSD4 (UniProt Q96CM3)
inactive: filanesib 0.398 | zotarolimus -0.018 | idasanutlin 0.12 | alisertib 0.185 | [3] -0.001 | [2] -0.273 | lapatinib 0.049 | pictilisib 0.017

RPP25 (UniProt Q9BUL9)
inactive: [1] 0.009 | filanesib 0.041 | zotarolimus 0.042 | idasanutlin 0.039 | alisertib -0.137 | [3] -0.024 | gefitinib -0.008 | [2] -0.009 | lapatinib 0.024 | pictilisib -0.054

RPL10 (UniProt F8W7C6)
inactive: filanesib 0.311 | zotarolimus -0.028 | alisertib -0.046 | [3] 0.011 | gefitinib 0.014 | [2] -0.149 | lapatinib -0.06 | pictilisib -0.253

RPS19 (UniProt M0R2L9)
inactive: idasanutlin -0.034 | alisertib -0.463 | [3] -0.158 | gefitinib 0.375 | [2] -0.331 | lapatinib -0.341

8 consecutive records already listed:
RPS6KA3 (UniProt P51812)
inactive: [1] -0.013 | filanesib 0 | zotarolimus 0.033 | idasanutlin -0.008 | [3] -0.221 | gefitinib -0.033 | [2] 0.013 | lapatinib 0.011 | pictilisib -0.011

RPSA (UniProt F8WD59)
inactive: alisertib 2.31 | [2] -0.02

RPL13 (UniProt P26373)
inactive: [1] -0.156 | filanesib 0.781 | zotarolimus -0.055 | idasanutlin 0.347 | alisertib -0.149 | [3] -0.119 | gefitinib -0.079 | [2] -0.357 | lapatinib 0.319 | pictilisib -0.077

RPS6KB2 (UniProt Q9UBS0)
inactive: [1] -0.075 | zotarolimus -0.068 | alisertib 0.076 | [2] -0.004

RPS3A (UniProt D6R9B6)
inactive: filanesib 0.228 | idasanutlin 0.079

RPUSD4 (UniProt Q96CM3)
inactive: filanesib 0.398 | zotarolimus -0.018 | idasanutlin 0.12 | alisertib 0.185 | [3] -0.001 | [2] -0.273 | lapatinib 0.049 | pictilisib 0.017

RPP25 (UniProt Q9BUL9)
inactive: [1] 0.009 | filanesib 0.041 | zotarolimus 0.042 | idasanutlin 0.039 | alisertib -0.137 | [3] -0.024 | gefitinib -0.008 | [2] -0.009 | lapatinib 0.024 | pictilisib -0.054

RPL10 (UniProt F8W7C6)
inactive: filanesib 0.311 | zotarolimus -0.028 | alisertib -0.046 | [3] 0.011 | gefitinib 0.014 | [2] -0.149 | lapatinib -0.06 | pictilisib -0.253

(list continues)

RPS3 (UniProt E9PJN9)
inactive: pictilisib 0.129

RPL3L (UniProt Q92901)
inactive: [1] -0.113 | filanesib 0.862 | zotarolimus 0.094 | idasanutlin 0.334 | alisertib -0.186 | [3] -0.155 | gefitinib -0.053 | [2] -0.549 | lapatinib 0.315 | pictilisib -0.118

RPAP2 (UniProt Q8IXW5)
inactive: [1] -0.003 | filanesib -0.008 | zotarolimus 0.101 | idasanutlin -0.098 | pictilisib 0.093

RREB1 isoform 2 (UniProt Q92766)
inactive: [1] 0.023 | filanesib 0.029 | zotarolimus 0.055 | alisertib -0.019 | [3] 0.014 | [2] 0.045 | lapatinib 0.082 | pictilisib 0.166

RPL27A (UniProt P46776)
inactive: [1] -0.098 | filanesib 0.572 | zotarolimus -0.092 | idasanutlin 0.258 | alisertib -0.222 | [3] -0.14 | gefitinib -0.015 | [2] -0.41 | lapatinib 0.218 | pictilisib -0.252

RNF26 (UniProt Q9BY78)
inactive: pictilisib 0.065

RPL32 (UniProt P62910)
inactive: [1] -0.037 | filanesib 0.477 | zotarolimus 0.055 | idasanutlin 0.255 | alisertib -0.109 | [3] -0.18 | gefitinib -0.093 | [2] -0.378 | lapatinib 0.312 | pictilisib -0.581

RPS6KA5 (UniProt O75582)
inactive: [1] -0.276 | alisertib -0.076 | [3] -0.185 | [2] 0.131 | lapatinib 0.057
